Publication PMC12199398, “Manipulating the Light Systemic Signal HY5 Greatly Improve Fruit Quality in Tomato”
No signal at the amounts used counts as a negative. At least one verdict rests on a figure or table, not on a statement of the authors. Tags and fusion partners may be left off the protein sequences shown.

Legend:
[1] = target: T1, HY5 (His-HY5) (Solanum lycopersicum (tomato)) (UniProt Q9SM50); experiment: EMSA; conditions: labeled mutant probe; LightShift Chemiluminescent EMSA Kit (Thermo 20148); pH and temperature not stated; recombinant protein; residues 1-158; protein details: His (pET-32a); label: labeled or unlabeled competitor
T1 sequence (looked up): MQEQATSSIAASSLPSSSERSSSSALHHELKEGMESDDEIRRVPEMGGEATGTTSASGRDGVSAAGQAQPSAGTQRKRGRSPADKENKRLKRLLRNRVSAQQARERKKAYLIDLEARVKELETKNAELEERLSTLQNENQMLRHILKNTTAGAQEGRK

[2] = target: T1, HY5 (His-HY5) (Solanum lycopersicum (tomato)); experiment: competition with a labelled probe; conditions: LightShift Chemiluminescent EMSA Kit (Thermo 20148), pH and temperature not stated, recombinant protein, residues 1-158, protein details: His (pET-32a), label: labeled or unlabeled competitor

“AAGAAAAAAAATGAAAATTTTCCCCTTATT (double strand) [VI mutant probe]”: no binding [1]; no binding ([2]; unlabeled mutant vs labeled N5).
“CACCCTTTAGAAAAATTACAGTAG (double strand) [SS1 mutant probe]”: no binding [1]; no binding ([2]; unlabeled mutant vs labeled N7).
“CGCAATTAAATTTTTTAGGGCTTTGA (double strand) [LIN6 mutant probe]”: no binding [1]; no binding ([2]; unlabeled mutant vs labeled N13).
“GAAAATCTTTTTGTCTTAA (double strand) [PSY1 mutant probe]”: no binding [1]; no binding ([2]; unlabeled mutant vs labeled N1).
“GCCCGGTGTCTTTTTTAGATTGACAG (double strand) [SS7 mutant probe]”: no binding [1]; no binding ([2]; unlabeled mutant vs labeled N9).
“GTAAATTATTTTTTCAGGCTTTAT (double strand) [LIN5 mutant probe]”: no binding [1]; no binding ([2]; unlabeled mutant vs labeled N11).
“TGGTGGGTTTTGTCAAATT (double strand) [PDS mutant probe]”: no binding [1]; no binding ([2]; unlabeled mutant vs labeled N3).
